These are yes or no findings as the source states them, for the method shown. For some assays here: Binding seen in cells or lysates may run through a third protein. Some results given as binding are weak or reduced against the parent protein; the word gives no strength. Tags and fused reporters may be left off the sequences shown.

Assay [1] deals with T1, C-terminal 3xHA-tagged CERK1 (Arabidopsis) (UniProt A8R7E6).
T1 sequence: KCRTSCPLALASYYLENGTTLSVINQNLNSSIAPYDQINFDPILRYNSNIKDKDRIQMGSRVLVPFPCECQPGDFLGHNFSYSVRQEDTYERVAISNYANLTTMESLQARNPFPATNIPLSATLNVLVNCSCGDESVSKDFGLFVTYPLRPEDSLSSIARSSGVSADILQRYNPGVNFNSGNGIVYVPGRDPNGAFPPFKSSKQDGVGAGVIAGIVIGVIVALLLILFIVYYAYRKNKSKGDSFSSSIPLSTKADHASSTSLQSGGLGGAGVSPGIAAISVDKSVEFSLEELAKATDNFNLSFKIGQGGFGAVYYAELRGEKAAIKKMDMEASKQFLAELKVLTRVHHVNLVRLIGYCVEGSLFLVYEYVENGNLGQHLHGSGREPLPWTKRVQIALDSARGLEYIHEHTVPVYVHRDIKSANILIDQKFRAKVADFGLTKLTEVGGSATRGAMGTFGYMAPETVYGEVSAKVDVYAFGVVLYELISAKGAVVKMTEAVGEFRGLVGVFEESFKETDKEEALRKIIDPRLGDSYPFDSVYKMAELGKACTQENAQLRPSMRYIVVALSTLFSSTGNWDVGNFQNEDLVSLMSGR
Put plainly: co-IP; transient co-expression in N. benthamiana leaves; extract with 2% IGEPAL CA-630, 150 mM NaCl, pH 7.5; anti-HA magnetic beads; immunoblots. (In western blotting, separated proteins are transferred to a membrane and probed.)

In assay [2] the target is T2, PBL27 (yeast two-hybrid fusion) (Arabidopsis) (UniProt Q1PDV6).
T2 sequence: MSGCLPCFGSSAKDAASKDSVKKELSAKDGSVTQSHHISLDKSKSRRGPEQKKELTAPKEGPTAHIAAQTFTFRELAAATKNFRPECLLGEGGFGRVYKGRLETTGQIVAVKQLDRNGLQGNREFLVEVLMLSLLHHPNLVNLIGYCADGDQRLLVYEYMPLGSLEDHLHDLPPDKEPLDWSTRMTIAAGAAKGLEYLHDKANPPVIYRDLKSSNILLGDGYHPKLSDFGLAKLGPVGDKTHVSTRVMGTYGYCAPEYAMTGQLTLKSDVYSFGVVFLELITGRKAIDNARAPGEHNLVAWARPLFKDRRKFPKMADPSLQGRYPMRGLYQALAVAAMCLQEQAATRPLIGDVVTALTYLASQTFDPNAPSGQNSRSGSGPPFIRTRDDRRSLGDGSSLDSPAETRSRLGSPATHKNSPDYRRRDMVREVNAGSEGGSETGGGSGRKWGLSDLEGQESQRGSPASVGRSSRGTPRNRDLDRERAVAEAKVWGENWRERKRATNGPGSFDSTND
Put plainly: two-hybrid; yeast; pBTM116 (bait, LexA) and pVP16 (prey) vectors; growth on plates lacking uracil, leucine, tryptophan and histidine with 2 mM 3-aminotriazole.

B1: N-terminal GFP-fused PUB12 (enzyme, UniProt Q9ZV31 1-654)
chain: MAKSEKHKLAQTLIDSINEIASISDSVTPMKKHCANLSRRLSLLLPMLEEIRDNQESSSEVVNALLSVKQSLLHAKDLLSFVSHVSKIYLVLERDQVMVKFQKVTSLLEQALSIIPYENLEISDELKEQVELVLVQLRRSLGKRGGDVYDDELYKDVLSLYSGRGSVMESDMVRRVAEKLQLMTITDLTQESLALLDMVSSSGGDDPGESFEKMSMVLKKIKDFVQTYNPNLDDAPLRLKSSLPKSRDDDRDMLIPPEEFRCPISLELMTDPVIVSSGQTYERECIKKWLEGGHLTCPKTQETLTSDIMTPNYVLRSLIAQWCESNGIEPPKRPNISQPSSKASSSSSAPDDEHNKIEELLLKLTSQQPEDRRSAAGEIRLLAKQNNHNRVAIAASGAIPLLVNLLTISNDSRTQEHAVTSILNLSICQENKGKIVYSSGAVPGIVHVLQKGSMEARENAAATLFSLSVIDENKVTIGAAGAIPPLVTLLSEGSQRGKKDAATALFNLCIFQGNKGKAVRAGLVPVLMRLLTEPESGMVDESLSILAILSSHPDGKSEVGAADAVPVLVDFIRSGSPRNKENSAAVLVHLCSWNQQHLIEAQKLGIMDLLIEMAENGTDRGKRKAAQLLNRFSRFNDQQKQHSGLGLEDQISLI
Regarding B1, in assay [1], the binding result is recorded as “binds”.

B2: PUB12 (yeast two-hybrid fusion) (enzyme, UniProt Q9ZV31 1-654)
chain: B1 chain
For the molecule B2, the binding entry in assay [2] is given as “no binding”.

The values are drawn from paper PMC5705137.
